Results from publication PMC11427348.
These are yes or no findings as the source states them, for the method shown. Binding seen in cells or lysates may run through a third protein. Some binding calls cover weakened binding; strength is not graded here. For part of these data: Sequences can lack the tags named with a protein. One block for each binder: values may come before it.

Chains of the proteins cited; added tags and fusions are not shown.
UniProt O60488: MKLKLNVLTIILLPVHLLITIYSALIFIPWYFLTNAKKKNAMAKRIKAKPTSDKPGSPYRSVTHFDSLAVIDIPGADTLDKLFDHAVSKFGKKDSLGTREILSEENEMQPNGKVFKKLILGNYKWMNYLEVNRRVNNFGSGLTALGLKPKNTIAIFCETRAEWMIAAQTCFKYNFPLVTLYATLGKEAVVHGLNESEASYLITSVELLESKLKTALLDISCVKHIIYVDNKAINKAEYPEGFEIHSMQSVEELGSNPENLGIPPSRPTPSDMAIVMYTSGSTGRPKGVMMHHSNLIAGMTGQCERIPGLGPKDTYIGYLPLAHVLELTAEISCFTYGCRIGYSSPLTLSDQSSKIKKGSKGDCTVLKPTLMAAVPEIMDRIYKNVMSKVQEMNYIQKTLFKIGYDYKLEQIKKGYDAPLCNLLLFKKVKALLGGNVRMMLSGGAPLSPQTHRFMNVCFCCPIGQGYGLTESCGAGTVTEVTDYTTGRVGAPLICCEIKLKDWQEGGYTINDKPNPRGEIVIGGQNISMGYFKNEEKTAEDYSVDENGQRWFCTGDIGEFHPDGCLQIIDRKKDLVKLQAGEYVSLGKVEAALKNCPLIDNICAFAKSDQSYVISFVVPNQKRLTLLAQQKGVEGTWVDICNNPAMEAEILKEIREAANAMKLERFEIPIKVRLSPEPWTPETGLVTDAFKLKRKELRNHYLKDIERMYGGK
UniProt Q96LD4: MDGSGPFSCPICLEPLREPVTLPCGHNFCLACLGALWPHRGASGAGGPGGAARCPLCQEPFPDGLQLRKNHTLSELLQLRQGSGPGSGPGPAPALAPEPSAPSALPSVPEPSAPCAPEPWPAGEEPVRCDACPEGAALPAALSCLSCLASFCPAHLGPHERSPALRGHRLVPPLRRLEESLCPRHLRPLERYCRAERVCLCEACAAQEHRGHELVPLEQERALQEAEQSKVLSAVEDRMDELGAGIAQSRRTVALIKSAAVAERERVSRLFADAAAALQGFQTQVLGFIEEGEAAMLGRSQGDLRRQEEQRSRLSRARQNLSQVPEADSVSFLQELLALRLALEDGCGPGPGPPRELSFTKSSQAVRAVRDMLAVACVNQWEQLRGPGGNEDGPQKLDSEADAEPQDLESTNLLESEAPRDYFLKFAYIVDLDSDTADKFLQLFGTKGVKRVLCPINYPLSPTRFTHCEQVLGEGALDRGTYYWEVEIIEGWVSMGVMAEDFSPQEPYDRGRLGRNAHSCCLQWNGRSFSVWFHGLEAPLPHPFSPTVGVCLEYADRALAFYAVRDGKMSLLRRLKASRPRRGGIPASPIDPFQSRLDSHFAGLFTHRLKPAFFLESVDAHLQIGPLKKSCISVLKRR

Columns and labels:
[1] = target: Acyl-CoA synthetase long chain family member 4 (ACSL4), endogenous in HONE1 cells (human (endogenous in HONE1)) (UniProt O60488); experiment: co-IP; endogenous proteins in lysates of HONE1 TRCs and bulk cells; immunoprecipitation overnight at 4 °C, Protein A/G magnetic beads, immunoblotting
HA-HERC6 = target: T1, HA-HERC6 (UniProt Q8IVU3); experiment: co-IP; HEK293T cells transfected with Flag-PCK2 and HA-HERC6 or HA-TRIM47; immunoprecipitation and immunoblot
T1 sequence: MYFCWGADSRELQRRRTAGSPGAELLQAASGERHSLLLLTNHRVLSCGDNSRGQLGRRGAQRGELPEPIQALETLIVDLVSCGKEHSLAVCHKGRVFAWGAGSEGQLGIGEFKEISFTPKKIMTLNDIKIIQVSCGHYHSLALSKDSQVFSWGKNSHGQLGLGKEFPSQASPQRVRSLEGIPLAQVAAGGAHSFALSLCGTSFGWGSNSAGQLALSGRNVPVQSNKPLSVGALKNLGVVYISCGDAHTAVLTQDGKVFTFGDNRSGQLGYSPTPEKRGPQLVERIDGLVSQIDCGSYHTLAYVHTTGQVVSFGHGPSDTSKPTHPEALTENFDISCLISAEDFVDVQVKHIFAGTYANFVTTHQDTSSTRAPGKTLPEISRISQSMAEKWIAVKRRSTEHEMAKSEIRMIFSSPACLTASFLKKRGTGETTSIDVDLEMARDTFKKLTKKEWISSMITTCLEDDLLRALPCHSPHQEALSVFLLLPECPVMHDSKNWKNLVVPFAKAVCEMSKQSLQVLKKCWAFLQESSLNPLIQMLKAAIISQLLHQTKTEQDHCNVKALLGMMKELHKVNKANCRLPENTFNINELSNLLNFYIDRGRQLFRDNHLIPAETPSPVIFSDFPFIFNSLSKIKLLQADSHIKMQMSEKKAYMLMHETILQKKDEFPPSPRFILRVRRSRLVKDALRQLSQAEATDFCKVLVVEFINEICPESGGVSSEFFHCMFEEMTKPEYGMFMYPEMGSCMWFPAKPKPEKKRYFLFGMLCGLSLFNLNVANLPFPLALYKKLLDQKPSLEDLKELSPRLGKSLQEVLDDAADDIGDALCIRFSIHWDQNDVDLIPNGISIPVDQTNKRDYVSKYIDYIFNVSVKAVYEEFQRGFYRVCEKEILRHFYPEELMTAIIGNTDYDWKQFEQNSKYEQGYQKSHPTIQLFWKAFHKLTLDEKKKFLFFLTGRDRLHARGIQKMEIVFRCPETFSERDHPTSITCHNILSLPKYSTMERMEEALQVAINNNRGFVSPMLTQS

HA-TRIM47 = HA-TRIM47 (UniProt Q96LD4); experiment: as above

binding [1]: binds
B1: Mitochondrial phosphoenolpyruvate carboxykinase 2 (PCK2), endogenous in HONE1 cells (protein, UniProt Q16822 33-640)
chain: LSGDLGQLPTGIRDFVEHSARLCQPEGIHICDGTEAENTATLTLLEQQGLIRKLPKYNNCWLARTDPKDVARVESKTVIVTPSQRDTVPLPPGGARGQLGNWMSPADFQRAVDERFPGCMQGRTMYVLPFSMGPVGSPLSRIGVQLTDSAYVVASMRIMTRLGTPVLQALGDGDFVKCLHSVGQPLTGQGEPVSQWPCNPEKTLIGHVPDQREIISFGSGYGGNSLLGKKCFALRIASRLARDEGWLAEHMLILGITSPAGKKRYVAAAFPSACGKTNLAMMRPALPGWKVECVGDDIAWMRFDSEGRLRAINPENGFFGVAPGTSATTNPNAMATIQSNTIFTNVAETSDGGVYWEGIDQPLPPGVTVTSWLGKPWKPGDKEPCAHPNSRFCAPARQCPIMDPAWEAPEGVPIDAIIFGGRRPKGVPLVYEAFNWRHGVFVGSAMRSESTAAAEHKGKIIMHDPFAMRPFFGYNFGHYLEHWLSMEGRKGAQLPRIFHVNWFRRDEAGHFLWPGFGENARVLDWICRRLEGEDSARETPIGLVPKEGALDLSGLRAIDTTQLFSLPKDFWEQEVRDIRSYLTEQVNQDLPKEVLAELEALERRVHKM

binding (HA-HERC6): binds
B2: Flag-PCK2 (protein, UniProt Q16822 33-640)
chain: B1 chain
binding (HA-TRIM47): no binding
